Values quoted from earlier work in patent publication US20220079960A1, “USE OF P1P DERIVATIVES AS THERAPEUTIC AGENT FOR SEPSIS” (AXCESO BIOPHARMACO.,LTD., priority 2019, published 2022).
For some assays here: For at least one compound, name, drawing or mass did not settle the structure. Some results were stated once for a whole list of compounds, not compound by compound. Some ranges recur; such a range may be that of the whole group of compounds.

What was measured:
[1] = tested on: LPS (Lipopolysaccharide) treatment; details: pretreated before LPS treatment; cited from earlier work
[2] = cited from earlier work

Compound	improving the survival rate [1]	therapeutic effect for sepsis [2]
Ulinastatin	40-60%	–
CCCCCCCCc1ccc(CCC(N)(CO)CO)cc1 [FTY720, fingolimod, reference compound]	–	very low therapeutic effect
